Some of the results follow. These are further read-outs of the screen, such as a control signal, another cell line or another target. No call is given for them. Compounds called inactive in the main read-out are mostly missing here. Potencies come from curve fits of mixed quality, noted in brackets.
Assay: IkB Signaling
Conditions: ABC-DLBCL IkBa-CBG/CBR dual luciferase ratio (green luciferase fused to IkBa over red control in OCI-Ly3 lymphoma cells), 4 h
Method in brief: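 Curves were fitted separately to fusion (green), unfused (red) and ratio luminescence, then classed by r2, magnitude and activity. Cells: OCI-Ly3, 4 h compound plus doxycycline at 37C; 10 uM MG-132 defined full response.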

[1] = measured here: control luc red channel unless noted
[2] = measured here: IkB-luc green channel
[3] = measured here: control luc red channel

In the case of `COc1ccc(NC(=O)c2cnc(SCC(=O)Nc3nc4ccc(C)cc4s3)n(C)c2=O)cc1`, the AC50 [1] is reported as 25.1 µM [falling, partial curve].
With `Cc1cccc(C(=O)NCC(c2ccc3c(c2)OCO3)N2CCOCC2)c1` (centres undefined) the AC50 [1] was 0.0398 µM [rising, full curve].
In the case of `Cc1ccc(-c2noc(CSc3nnc(-c4ccc(Cl)cc4)n3C)n2)cc1`, the AC50 [1] is reported as 15.8 µM [falling, partial curve, poor fit].
In the case of `O=C(c1ccco1)c1cn(CCOc2ccc(Cl)cc2)c2ccccc12`, the AC50 [1] is reported as 7.94 µM [falling, partial curve].
With `Cc1noc(NS(=O)(=O)c2ccc(N)cc2)c1C` the AC50 [2] was 39.8 µM [rising, single point] and the AC50 [3] was 39.8 µM [rising, single point].
In the case of `O=C(c1cccs1)N1CCCc2cc(NS(=O)(=O)c3ccc(Cl)cc3)ccc21`, the AC50 [1] is reported as 25.1 µM [falling, single point].
With `COc1ccccc1-c1cc(C(F)(F)F)nc(S(=O)(=O)CCCC(=O)Nc2cc(Br)ccc2O)n1` the AC50 [1] was 1.26 µM [falling, full curve].
In the case of `COc1cccc(-n2c(=O)c3c4c(sc3n(Cc3ccc(F)cc3Cl)c2=O)CCCC4)c1`, the AC50 [1] is reported as 0.0631 µM [rising, full curve, poor fit].
With `O=C(NCc1ccco1)C(c1cccs1)N(C(=O)Cc1cccs1)c1ccccc1` (centres undefined) the AC50 [1] was 15.8 µM [falling, partial curve].
In the case of `CCc1ccc(NC(=O)CC(c2ccc(C)cc2)N2Cc3ccccc3C2=O)cc1` (centres undefined), the AC50 [1] is reported as 15.8 µM [falling, single point].
In the case of `COCCNC(=O)c1ccc2nc(CCc3ccccc3)oc2c1`, the AC50 [1] is reported as 15.8 µM [rising, partial curve].
In the case of `Cc1ccc(Cl)cc1N1CCN(C(=O)CCSCc2ccccc2F)CC1`, the AC50 [1] is reported as 31.6 µM [falling, partial curve].
In the case of `CCc1ccc(-c2cc(C)no2)cc1S(=O)(=O)N1CCN(c2cccc(Cl)c2)CC1`, the AC50 [1] is reported as 15.8 µM [rising, partial curve].
For `COc1cc(C2Nc3ccccc3C(=O)N2c2ccccc2OC)ccc1O` (centres undefined), the AC50 [1] was 3.16 µM [falling, full curve].
With `Cc1oc(-c2ccc(Cl)cc2)nc1CN1CCCC(C(=O)N2CCN(C(=O)c3ccco3)CC2)C1` (centres undefined) the AC50 [1] was 12.6 µM [falling, partial curve].
In the case of `COCCn1c(SCCCc2ccccc2)nc2c1c(=O)[nH]c(=O)n2C`, the AC50 [1] is reported as 20 µM [falling, partial curve, poor fit].
With `Cc1ccc(NC(=O)Nc2cc3c(cc2N2CCCCC2)n(C)c(=O)n3C)cc1Cl` the AC50 [1] was 10 µM [falling, partial curve].
In the case of `Cc1cc(Nc2nnnn2-c2ccccc2)n(-c2ccc(Cl)cc2)n1`, the AC50 [1] is reported as 15.8 µM [falling, partial curve].
For `CCOc1ccccc1NC(=O)COc1cccc2c(=O)n(CCOC)ccc12`, the AC50 [1] was 0.631 µM [falling, full curve].
In the case of `O=C(NCCc1ccc(Cl)cc1)c1ccc2c(c1)N(Cc1ccccc1)CCS2`, the AC50 [1] is reported as 15.8 µM [falling, single point].
In the case of `O=C(Nc1ccc2oc(-c3cccnc3)nc2c1)c1ccc(-c2cccc(OC(F)(F)F)c2)o1`, the AC50 [1] is reported as 3.16 µM [falling, full curve].
In the case of `COc1cccc(N2CCN(C(=O)c3ccc(CS(=O)c4cccc(Cl)c4)o3)CC2)c1` (centres undefined), the AC50 [1] is reported as 31.6 µM [falling, single point].
For `COc1cccc(CNS(=O)(=O)c2cc(Br)cc3c2N(C(C)=O)C(C)C3)c1` (centres undefined), the AC50 [1] was 0.1 µM [falling, full curve].
For `CCOC(=O)c1c(NC(=O)C(F)(OC)C(F)(F)F)sc(C(=O)N2CCCCC2)c1C` (centres undefined), the AC50 [1] was 31.6 µM [falling, single point].
For `CC1CCN(c2oc(-c3ccccc3F)nc2C#N)CC1`, the AC50 [1] was 3.16 µM [rising, full curve].
In the case of `COC(=O)c1ccccc1NC(=O)c1nc(S(=O)(=O)Cc2ccccc2F)ncc1Cl`, the AC50 [1] is reported as 3.16 µM [rising, single point].
In the case of `O=C(CSc1nc2c([nH]c3ccccc32)c(=O)n1-c1cccc(Cl)c1)N1CCc2ccccc21`, the AC50 [1] is reported as 25.1 µM [rising, partial curve, poor fit].
In the case of `COc1cccc(Cc2nc3ccccc3nc2SCC(=O)N2CCCCC2C)c1` (centres undefined), the AC50 [1] is reported as 31.6 µM [falling, single point].
In the case of `CCn1c(=O)cc(SCC(=O)N2CCN(Cc3ccc4c(c3)OCO4)CC2)c2ccccc21`, the AC50 [1] is reported as 20 µM [falling, partial curve].
For `Cc1ccc2nc(NCc3ccccc3Cl)c3nnnn3c2c1`, the AC50 [1] was 3.98 µM [rising, partial curve, poor fit].
In the case of `COc1cccc2cc(C(=O)N3CCc4ccccc4C3)c(=O)oc12`, the AC50 [1] is reported as 0.1 µM [falling, full curve].
In the case of `Brc1ccccc1-c1nnc(CSc2nnnn2-c2ccccc2)o1`, the AC50 [1] is reported as 15.8 µM [falling, partial curve].
In the case of `COc1cccc(C(=O)CN2CCN(S(=O)(=O)c3ccc(Cl)cc3)CC2)c1`, the AC50 [1] is reported as 39.8 µM [falling, single point].
In the case of `O=C(CN1C(=O)CSc2ccc(S(=O)(=O)N3CCCCC3)cc21)NCc1ccc(F)cc1Cl`, the AC50 [1] is reported as 25.1 µM [falling, partial curve].
In the case of `O=C(NCc1ccco1)c1ccc2c(c1)N(Cc1ccc(F)cc1)C(=O)c1ccccc1S2=O` (centres undefined), the AC50 [1] is reported as 12.6 µM [falling, partial curve].
With `CN(C)c1nc(N)nc(CSc2nc3cc(Cl)ccc3o2)n1` the AC50 [1] was 39.8 µM [rising, partial curve].
For `CCOc1ccc(NC(=O)Cn2c(CCC(=O)O)ccc2-c2ccc(Cl)cc2)cc1`, the AC50 [1] was 15.8 µM [falling, partial curve].
For `CCCN1C(C(=O)c2ccccc2)=C(OC(=O)c2ccc(F)cc2)c2ccccc2S1(=O)=O`, the AC50 [1] was 10 µM [falling, partial curve].
For `Cc1ccc(C)c(Cn2c3ccccc3c3cnn(CC(=O)N4CCCCC4)c(=O)c32)c1`, the AC50 [1] was 15.8 µM [falling, partial curve].
For `COc1ccc(Cl)cc1NC(=O)c1cc(S(=O)(=O)N2CCc3ccccc32)cn1C`, the AC50 [1] was 15.8 µM [falling, partial curve].
In the case of `Cc1cccc(-n2c(=O)c3ccccc3n(Cc3ccccc3C#N)c2=O)c1`, the AC50 [1] is reported as 0.1 µM [rising, partial curve].
In the case of `COc1cc2c(C(=O)N3CCN(c4cccc(C)c4)C(C)C3)cn(CC(C)C)c(=O)c2cc1OC` (centres undefined), the AC50 [1] is reported as 15.8 µM [falling, partial curve].
With `CC1CN(C(=O)CCC(=O)NCc2cccc(Cl)c2)c2ccccc2S1` (centres undefined) the AC50 [1] was 39.8 µM [falling, single point].
In the case of `COc1ccccc1C(=O)N(Cc1nc(-c2cccc(C)c2)no1)C(C)C`, the AC50 [1] is reported as 15.8 µM [falling, partial curve].
In the case of `O=C(NCc1ccccc1)c1nc(S(=O)(=O)Cc2ccc(F)cc2)ncc1Cl`, the AC50 [1] is reported as 7.94 µM [falling, full curve].
For `Cc1nn(C(C)C(=O)NC2CCC(C)CC2)c(=O)c2c1sc1ccccc12` (centres undefined), the AC50 [1] was 1.26 µM [falling, full curve].
For `O=S(=O)(NCCc1csc2nc(-c3ccccc3)nn12)c1cccs1`, the AC50 [1] was 39.8 µM [falling, single point].
For `Cc1ccc(OCc2nc(-c3ccc(C(=O)NCCc4ccc(Cl)cc4)cc3)oc2C)cc1`, the AC50 [1] was 25.1 µM [falling, single point].
With `CCCCc1ccc(NC(=O)c2cc(-c3ccc(C)c(F)c3)on2)cc1` the AC50 [1] was 7.94 µM [falling, partial curve].
With `COc1ccc(C2=C(Nc3ccc(Br)c(C)c3)c3ccccc3C2=O)cc1` the AC50 [1] was 12.6 µM [falling, partial curve].
With `CC(C)Nc1ccc(-c2nc(-c3ccncc3)no2)cc1[N+](=O)[O-]` the AC50 [1] was 12.6 µM [falling, partial curve].
For `COCCn1ccc2c(OCC(=O)Nc3c(C)cc(C)cc3C)cccc2c1=O`, the AC50 [1] was 5.01 µM [rising, full curve, poor fit].
With `CCCSc1oc(-c2ccco2)nc1S(=O)(=O)c1ccc(Br)cc1` the AC50 [1] was 12.6 µM [falling, partial curve].
For `CC(=O)N1CCc2c(sc3c2c(=O)n(-c2ccc(F)cc2)c(=O)n3Cc2ccc(C#N)cc2)C1`, the AC50 [1] was 1.58 µM [falling, single point].
In the case of `Cn1c(=O)oc2cc(S(=O)(=O)Nc3cccc4c3CCCC4)ccc21`, the AC50 [1] is reported as 1 µM [falling, partial curve].
For `O=C(Nc1ccc(Cl)cc1)Nc1ccccc1C(=O)NCc1ccco1`, the AC50 [1] was 10 µM [falling, partial curve].
With `CCCCN(CC)C(=O)CSc1nc2n[nH]c(C)c2c(=N)n1-c1cccc(C)c1` the AC50 [1] was 39.8 µM [falling, single point].
In the case of `COc1cccc2c1cc1c(=O)n(CC(=O)N3CCN(c4cccc(C(F)(F)F)c4)CC3)nc(C)n12`, the AC50 [1] is reported as 1.58 µM [rising, partial curve].
With `O=C(COc1ccccc1Cl)Nc1nnc(S(=O)(=O)N2CCCC2)s1` the AC50 [1] was 1.58 µM [falling, full curve].
In the case of `O=C(Nc1cccc(C(F)(F)F)c1)c1cc(-c2ccc(Cl)s2)nc2ccccc12`, the AC50 [1] is reported as 0.631 µM [rising, single point].
For `O=C(Nc1nccs1)c1ccc(S(=O)(=O)NCc2cccs2)cc1`, the AC50 [2] was 31.6 µM [falling, single point] and the AC50 [3] was 10 µM [falling, partial curve].
For `CC[C@H](C(=O)[C@H](C)[C@H](O)[C@H](C)CCc1ccc(C)c(O)c1C(=O)O)[C@H]1O[C@](CC)([C@@H]2CC[C@@](O)(CC)[C@H](C)O2)C[C@H]1C`, the AC50 [1] was 3.98 µM [falling, full curve].
